This is an account of results in paper doi:10.1101/2021.06.28.447216.

Protein sequences, listed by entry. Tags and fused reporters are not part of them.
UniProt P45973: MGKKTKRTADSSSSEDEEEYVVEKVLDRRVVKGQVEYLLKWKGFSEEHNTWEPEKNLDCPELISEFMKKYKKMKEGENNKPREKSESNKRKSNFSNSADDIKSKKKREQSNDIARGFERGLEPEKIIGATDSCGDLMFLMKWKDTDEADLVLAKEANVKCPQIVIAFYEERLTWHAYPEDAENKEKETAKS
UniProt P83916: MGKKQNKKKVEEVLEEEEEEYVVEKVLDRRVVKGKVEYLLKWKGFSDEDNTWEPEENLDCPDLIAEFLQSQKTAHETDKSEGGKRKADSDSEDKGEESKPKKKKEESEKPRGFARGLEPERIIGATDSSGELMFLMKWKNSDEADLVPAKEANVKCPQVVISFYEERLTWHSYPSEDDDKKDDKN

Results are given in words; binding and its absence hold for the method and conditions named. In cells and extracts the contact can be indirect. A yes stands for co-enrichment or nearness to the bait. Other partners may have been found.

What all share (experiment): proximity labelling
Assay [1] has as its target Flag-BirA*HP1-α (human), P45973. As to conditions: remark: other sources report otherwise.
The target of the next assay is Flag-BirA*HP1-α (human) (UniProt P45973).
In the next assay the target is Flag-BirA*HP1-β (human) (UniProt P83916).

B1: EHMT1, Q9H9B1 1-1298 (protein)
chain: MAAADAEAVPARGEPQQDCCVKTELLGEETPMAADEGSAEKQAGEAHMAADGETNGSCENSDASSHANAAKHTQDSARVNPQDGTNTLTRIAENGVSERDSEAAKQNHVTADDFVQTSVIGSNGYILNKPALQAQPLRTTSTLASSLPGHAAKTLPGGAGKGRTPSAFPQTPAAPPATLGEGSADTEDRKLPAPGADVKVHRARKTMPKSVVGLHAASKDPREVREARDHKEPKEEINKNISDFGRQQLLPPFPSLHQSLPQNQCYMATTKSQTACLPFVLAAAVSRKKKRRMGTYSLVPKKKTKVLKQRTVIEMFKSITHSTVGSKGEKDLGASSLHVNGESLEMDSDEDDSEELEEDDGHGAEQAAAFPTEDSRTSKESMSEADRAQKMDGESEEEQESVDTGEEEEGGDESDLSSESSIKKKFLKRKGKTDSPWIKPARKRRRRSRKKPSGALGSESYKSSAGSAEQTAPGDSTGYMEVSLDSLDLRVKGILSSQAEGLANGPDVLETDGLQEVPLCSCRMETPKSREITTLANNQCMATESVDHELGRCTNSVVKYELMRPSNKAPLLVLCEDHRGRMVKHQCCPGCGYFCTAGNFMECQPESSISHRFHKDCASRVNNASYCPHCGEESSKAKEVTIAKADTTSTVTPVPGQEKGSALEGRADTTTGSAAGPPLSEDDKLQGAASHVPEGFDPTGPAGLGRPTPGLSQGPGKETLESALIALDSEKPKKLRFHPKQLYFSARQGELQKVLLMLVDGIDPNFKMEHQNKRSPLHAAAEAGHVDICHMLVQAGANIDTCSEDQRTPLMEAAENNHLEAVKYLIKAGALVDPKDAEGSTCLHLAAKKGHYEVVQYLLSNGQMDVNCQDDGGWTPMIWATEYKHVDLVKLLLSKGSDINIRDNEENICLHWAAFSGCVDIAEILLAAKCDLHAVNIHGDSPLHIAARENRYDCVVLFLSRDSDVTLKNKEGETPLQCASLNSQVWSALQMSKALQDSAPDRPSPVERIVSRDIARGYERIPIPCVNAVDSEPCPSNYKYVSQNCVTSPMNIDRNITHLQYCVCIDDCSSSNCMCGQLSMRCWYDKDGRLLPEFNMAEPPLIFECNHACSCWRNCRNRVVQNGLRARLQLYRTRDMGWGVRSLQDIPPGTFVCEYVGELISDSEADVREEDSYLFDLDNKDGEVYCIDARFYGNVSRFINHHCEPNLVPVRVFMAHQDLRFPRIAFFSTRLIEAGEQLGFDYGERFWDIKGKLFSCRCGSPKCRHSSAALAQRQASAAQEAQEDGLPDTSSAAAADPL
For B1, the binding result in assay [1] is on record as “binds”.

B2: POGO transposable element derived with ZNF domain protein (POGZ) (protein, UniProt Q7Z3K3 1-1410)
chain: MADTDLFMECEEEELEPWQKISDVIEDSVVEDYNSVDKTTTVSVSQQPVSAPVPIAAHASVAGHLSTSTTVSSSGAQNSDSTKKTLVTLIANNNAGNPLVQQGGQPLILTQNPAPGLGTMVTQPVLRPVQVMQNANHVTSSPVASQPIFITTQGFPVRNVRPVQNAMNQVGIVLNVQQGQTVRPITLVPAPGTQFVKPTVGVPQVFSQMTPVRPGSTMPVRPTTNTFTTVIPATLTIRSTVPQSQSQQTKSTPSTSTTPTATQPTSLGQLAVQSPGQSNQTTNPKLAPSFPSPPAVSIASFVTVKRPGVTGENSNEVAKLVNTLNTIPSLGQSPGPVVVSNNSSAHGSQRTSGPESSMKVTSSIPVFDLQDGGRKICPRCNAQFRVTEALRGHMCYCCPEMVEYQKKGKSLDSEPSVPSAAKPPSPEKTAPVASTPSSTPIPALSPPTKVPEPNENVGDAVQTKLIMLVDDFYYGRDGGKVAQLTNFPKVATSFRCPHCTKRLKNNIRFMNHMKHHVELDQQNGEVDGHTICQHCYRQFSTPFQLQCHLENVHSPYESTTKCKICEWAFESEPLFLQHMKDTHKPGEMPYVCQVCQYRSSLYSEVDVHFRMIHEDTRHLLCPYCLKVFKNGNAFQQHYMRHQKRNVYHCNKCRLQFLFAKDKIEHKLQHHKTFRKPKQLEGLKPGTKVTIRASRGQPRTVPVSSNDTPPSALQEAAPLTSSMDPLPVFLYPPVQRSIQKRAVRKMSVMGRQTCLECSFEIPDFPNHFPTYVHCSLCRYSTCCSRAYANHMINNHVPRKSPKYLALFKNSVSGIKLACTSCTFVTSVGDAMAKHLVFNPSHRSSSILPRGLTWIAHSRHGQTRDRVHDRNVKNMYPPPSFPTNKAATVKSAGATPAEPEELLTPLAPALPSPASTATPPPTPTHPQALALPPLATEGAECLNVDDQDEGSPVTQEPELASGGGGSGGVGKKEQLSVKKLRVVLFALCCNTEQAAEHFRNPQRRIRRWLRRFQASQGENLEGKYLSFEAEEKLAEWVLTQREQQLPVNEETLFQKATKIGRSLEGGFKISYEWAVRFMLRHHLTPHARRAVAHTLPKDVAENAGLFIDFVQRQIHNQDLPLSMIVAIDEISLFLDTEVLSSDDRKENALQTVGTGEPWCDVVLAILADGTVLPTLVFYRGQMDQPANMPDSILLEAKESGYSDDEIMELWSTRVWQKHTACQRSKGMLVMDCHRTHLSEEVLAMLSASSTLPAVVPAGCSSKIQPLDVCIKRTVKNFLHKKWKEQAREMADTACDSDVLLQLVLVWLGEVLGVIGDCPELVQRSFLVASVLPGPDGNINSPTRNADMQEELIASLEEQLKLSGEHSESSTPRPRSSPEETIEPESLHQLFEGESETESFYGFEEADLDLMEI
Consider B2, for which the binding entry with Flag-BirA*HP1-α (human) and in the assay with Flag-BirA*HP1-β (human) was “binds” in each case.
